# Primary screen of a compound library

Data taken from ChEMBL document CHEMBL3988442, “University of Dundee, Small-Polar-MMV Screening Library” (2021).

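Whole-cell assay for inhibitors of Mycobacterium tuberculosis growth, labelled Cornell in the record; the read-out is not stated. The concentration is filed as 10 mM, unlikely as a test dose, so the dose is not known. The record gives no direction; compounds strong in two other growth screens of this library score well above the rest, so higher reads as stronger inhibition. Of about 53,000 compounds tested this way, about 900 (1.7%) reached 50% or more in at least one test.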

Values are the deposited “Percent Effect”, in %.
The controls that fix the scale are not given in the record; negative values are as filed.
Compounds were drawn at random from those tested, without regard to their results.

* [H][C@@]12CS(=O)(=O)C[C@]1([H])N(CC(=O)N1CCCCC1)CCN2c1ncccn1 | 23.05%
* O=c1cc(-c2ccc(F)cc2)nc2n1CCCCC2 | -1.445%
* CNC(=O)CN1CCCC(Cc2ccccc2OC)C1 (configuration not stated) | -35.42%
* CCn1cc(CNC(=O)C2CCCC2)cn1 | 20%
* Fc1cccc(CN2CCN(Cc3cscn3)CC2)c1 | -27.45%
* COc1ccc(C(=O)N2CC[C@](C)(O)[C@H](C)C2)cc1N1CCOCC1 | -3.644%
* CN1CCOC(CNCc2cccc(OCc3ccccn3)c2)C1 (configuration not stated) | -28.7%
* COc1ccccc1OCCCN1CCNC1=O | -36.54%
* Cc1cn(CC(=O)NC2CCN(C(=O)C3CC3)CC2)c2ccccc12 | -20.5%
* Cc1cccnc1NC(=O)c1ccc(F)c(S(=O)(=O)NC2CC2)c1 | 3.373%
* CC(C)(C(=O)NCC1CCN(Cc2ccccn2)C1)c1ccccc1 (configuration not stated) | -0.2316%
* Cc1cc(-c2ccc(C(C)N3CCOCC3)cc2)cnc1N (configuration not stated) | 23.59%
* CCc1ccccc1CNC(=O)NCc1cnn(C)c1 | 48.61%
* Cc1cc(NC2CCc3nc(C)nn3C2)n2ncnc2n1 (configuration not stated) | 21.97%
* COC(=O)CCN1CCCC1c1cccc2c1OCCO2 (configuration not stated) | 15.63%
* [H][C@@]12C[C@@H](OCc3ccccc3)C[C@]1([H])CN(Cc1cccnc1)C2 | -15.89%
* Cc1ccc(-c2nc(CN3CCc4nn(C)c(=O)cc4C3)no2)cc1 | 19.38%
* COC(=O)c1cc(OC)ccc1NCC(=O)NCC(=O)N1CCCC1 | 1.204%
* Cc1ncnc2c1CCN(c1ccccn1)CC2.O=C(O)C(F)(F)F | 10.1%
* CO[C@H]1CN(C(C)C)C[C@@H]1NC(=O)Nc1ccc(C(F)(F)F)cc1 | 12.44%
* Cc1cnn(C2CCCN(C(=O)CCc3cnn(C)c3)C2)c1 (configuration not stated) | -9.516%
* Cc1nc(CN2CCC(N(C)Cc3noc(C4CC4)n3)C2)oc1C (configuration not stated) | 27.52%
* COC(=O)N1CCN(CCCc2nnnn2-c2ccccc2)CC1 | -32%
* Cc1cnccc1-c1cnn(CCNC(=O)c2ccccn2)c1C1CC1.Cl | 2.137%
* Cc1ccc2nc(C3CCN(CCO)CC3)nn2c1 | -14.89%
* O=C(c1cnc(NCc2sccc2Br)c(Cl)c1)N1CCCCC1 | 42.09%
* CC(C)(O)CN1CCN(C(=O)COC2CCCC2)CC1 | 11.2%
* COc1cccc(C(=O)N(C)C(C)c2c(C)n[nH]c2C)c1OC (configuration not stated) | -13.23%
* COCCC(=O)N1CCCN(Cc2nccn2C(C)C)CC1 | -11.96%
* CN(C)c1ccc2c(c1)CN(C(=O)c1cnccn1)C2c1cnco1 (configuration not stated) | -34.86%
* O=C(NCCc1ccccn1)c1n[nH]c2c1CCC2 | 27.24%
* Cc1noc([C@@H]2C[C@H](NC(=O)NC3CCCCC3)CN2C)n1 | 11.64%
* COCC(=O)NC[C@H]1CC[C@H](c2ccnc3ncnn32)CC1 | -54.17%
* COC1COC2(CCN(Cc3cccc(C#N)c3)CC2)C1.O=C(O)C(F)(F)F (configuration not stated) | 10.28%
* CC1(C)Cc2ccccc2-c2nc(NCCCO)[nH]c(=O)c21 | 37.03%
* CCS(=O)(=O)N(C)CCCNC(=O)c1cc(Cl)cc2cccnc12 | 27.22%
* O=C(CCS(=O)(=O)C1CCCC1)N1CCCC1c1ccsc1 (configuration not stated) | -6.93%
* COc1ccc(C2CCCN2c2cnccn2)c(OC)c1 (configuration not stated) | -31.27%
* COc1cc(COCC2CCN(Cc3ccccn3)CC2)cc(OC)c1.O=C(O)C(=O)O | 16.88%
* CC(=O)N(C)CC(=O)Nc1ccc(C)cc1OCc1ccccc1 | -7.394%
* COc1cc(CN2CCCC2c2cccc(F)c2)cc(OC)c1OC (configuration not stated) | 23.57%
* Cc1cnc(Cn2cc(-c3cccc(C(C)N(C)C)c3)nn2)cn1 (configuration not stated) | 2.205%
* CN(c1ccc(F)cc1)S(=O)(=O)c1cc2c(c(C(=O)O)c1)OCCO2 | 13.42%

The first 4 entries again:

| compound | effect |
|---|---|
| `[H][C@@]12CS(=O)(=O)C[C@]1([H])N(CC(=O)N1CCCCC1)CCN2c1ncccn1` | 23.05 |
| `O=c1cc(-c2ccc(F)cc2)nc2n1CCCCC2` | -1.445 |
| `CNC(=O)CN1CCCC(Cc2ccccc2OC)C1` (configuration not stated) | -35.42 |
| `CCn1cc(CNC(=O)C2CCCC2)cn1` | 20 |